Measurements reported in patent US20250275968A1, “INHIBITORS OF TAU PROTEINS” (DEUTSCHES ZENTRUM FÜR NEURODEGENERATIVE ERKRANKUNGEN E.V., priority 2022, published 2025).
At least one structure is not confirmed: it was looked up by name or label, or the drawing left a doubt.

System: HEK293T biosensor cells expressing the human tau repeat domain (RD) harboring the P301L/V337M mutation (TauRD^LM-GFP)
Assay: HEK biosensor cell tau seeding assay
Format: cell-based
Settings: control compounds compared with Osimertinib, compound 2 and compound 3
Method: Compound stock solutions were prepared as 10 mM compound in DMSO.
HEK293T biosensor cells expressing the human tau repeat domain (RD) harboring the P301L/V337M mutation and fused to a C-terminal GFP tag (named TauRD^LM-GFP) were engineered to probe Tau seeding in cellula (Reference: Liu, S., Hossinger, A., Heumüller, S E. et al. Highly efficient intercellular spreading of protein misfolding mediated by viral ligand-receptor interactions. Nat Commun 12, 5739 (2021). https://doi.org/10.1038/s41467-021-25855-2). HEK cells expressing the P301L human full-length Tau, C-terminally tagged with GFP were incubated with pre-sonicated hTau40^P301L fibrils to induce Tau aggregate formation. Cells were harvested and the resulting cell lysate was used to seed Tau aggregation in further experiments with HEK TauRD^LM-GFP cells.
In a typical seeded assay, HEK cells were incubated with cell lysate, compounds (0-40 μM) and lipofectamine for 22-48 hours. Negative control experiments in the absence of compounds (only with vehicle DMSO) and in the presence of cell lysate were performed in parallel.
Dose response curves were constructed by quantifying the number of cells with aggregates for each compound concentration. The curves were fitted with a sigmoid function using Graphpad PRISM version 8. The inhibitory concentration at 50% activity (IC50) was determined for each compound.

C=CC(=O)Nc1cccc(Nc2nc(Nc3ccc(N4CCN(C(C)=O)CC4)cc3OC)ncc2C(F)(F)F)c1 [Rociletinib]
inhibitory activity toward the aggregation of tau in HEK biosensor cells (number of cells with aggregates relative to DMSO): much lower inhibitory activity
